# Values joined by “and” are separate entries in the source; they are usually repeats but may differ in a detail not shown here. Equal values may be shown once. Where a name gives a salt, the structure may show the parent alone. ± gives the standard deviation of the averaged measurements. This is one part of the list. Baselines shift from plate to plate; read single values as rough.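 Culture-activated primary human stellate myofibroblasts, where regained lipid droplets signal inactivation. Value: share of Hoechst-counted cells above a per-plate Bodipy cutoff, in duplicate wells, with DMSO negative and nortriptyline positive controls on each plate. Hits: a control-normalized score above the plate's top-tenth-percentile nortriptyline wells, or one of a plate's three best wells. Final well concentrations are not given.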
# System: primary human hepatic stellate cells (donor 1)
# Assay: percent Bodipy-positive cells; higher = more lipid droplet accumulation
# Details: 48 h
# [1] = library stock concentration: 3.33 mM
# [2] = library stock concentration: 10 mM
# [3] = library stock concentration: 80 uM
# [4] = library stock concentration: 400 uM
# [5] = library stock concentration: 2 mM
# [6] = library stock concentration: 1 mM
structure (smiles),measurement,setting,value
NC[C@H]1O[C@H](O[C@H]2[C@H](O)[C@@H](O[C@H]3O[C@H](CO)[C@@H](O)[C@H](N)[C@H]3O)[C@H](N)C[C@@H]2N)[C@H](N)C[C@@H]1O [Tobramycin],percent Bodipy-positive cells,,34.1 ± 11%
C=CCOc1ccccc1OCC(O)CNC(C)C (stereo not drawn) [Oxprenolol hydrochloride],percent Bodipy-positive cells,,16.6 ± 9.8%
O=C(/C=C/c1cccc(S(=O)(=O)Nc2ccccc2)c1)NO [Belinostat (PXD101)],percent Bodipy-positive cells,[1],58.9 ± 4.1%
same,percent Bodipy-positive cells,[2],69.5 ± 15%
O=C(/C=C/c1cccc(S(=O)(=O)Nc2ccccc2)c1)NO [Belinostat],percent Bodipy-positive cells,[3],41.6 ± 2.9%
same,percent Bodipy-positive cells,[4],36.1 ± 1.4%
same,percent Bodipy-positive cells,[5],66.8 ± 0.69%
same,percent Bodipy-positive cells,[2],87 ± 2.3%
Cc1c(N)c(=O)n(-c2ccccc2)n1C [Ampyrone],percent Bodipy-positive cells,,31.9 ± 2.9%
Nc1cc2c(ncn2CCOCP(=O)(O)O)c(=O)[nH]1 [PMEG hydrate],percent Bodipy-positive cells,[2],38.7 ± 12%
O=C(O)c1ccc[n+]([O-])c1,percent Bodipy-positive cells,[2],28.1 ± 2%
CC1(C)Cc2c(-c3ccccc3)c(-c3ccc(Cl)cc3)c(CC(=O)O)n2C1 [Licofelone],percent Bodipy-positive cells,[1],6.9 ± 2.5%
same,percent Bodipy-positive cells,[2],13.8 ± 5.7%
CC(C)(C)c1cc(NC(=O)Nc2ccc(-c3cn4c(n3)sc3cc(OCCN5CCOCC5)ccc34)cc2)no1,percent Bodipy-positive cells,[3],9.76 ± 1.8%
same,percent Bodipy-positive cells,[4],14.4 ± 7.5%
same,percent Bodipy-positive cells,[5],24.8 ± 4%
same,percent Bodipy-positive cells,[2],43.8 ± 12%
CC(C)(C)c1cc(NC(=O)Nc2ccc(-c3cn4c(n3)sc3cc(OCCN5CCOCC5)ccc34)cc2)no1 [Quizartinib (AC220)],percent Bodipy-positive cells,[1],29.7 ± 0.42%
CC(C)(C)c1cc(NC(=O)Nc2ccc(-c3cn4c(n3)sc3cc(OCCN5CCOCC5)ccc34)cc2)no1 [Quizartinib  (AC220) (0.4 mM)],percent Bodipy-positive cells,[4],25.7 ± 5.7%
C=C/C(C)=C/[C@@]1(C)SC(=O)C(C)=C1O [Thiolactomycin],percent Bodipy-positive cells,[2],21.2 ± 4.4%
Cc1nc(-c2ccc(C(F)(F)F)cc2)sc1C(=O)NCc1ccc(OC(C)(C)C(=O)O)cc1,percent Bodipy-positive cells,[6],22.9 ± 17%
O=C(CCc1ccncc1)NNC(=O)N1Cc2ccccc2Oc2ccc(Cl)cc21,percent Bodipy-positive cells,[2],39.9 ± 10%
CCOC(=O)Nc1nc2ccccc2[nH]1 [Lobendazole],percent Bodipy-positive cells,library stock concentration: 9.7 mM,9.8 ± 2.9%
O=c1c(O)c(-c2ccc(O)cc2)oc2cc(O)cc(O)c12 [Kaempferol],percent Bodipy-positive cells,,12.2 ± 0.36%
same,percent Bodipy-positive cells,[1],16.6 ± 2.7%
same,percent Bodipy-positive cells,[2],26.9% and 13.4%
COc1cc2nc(N3CCN(C(=O)C4COc5ccccc5O4)CC3)nc(N)c2cc1OC (stereo not drawn) [Doxazosin Mesylate],percent Bodipy-positive cells,[1],24.1 ± 10%
same,percent Bodipy-positive cells,[2],95.4 ± 1.9%
COc1cc2nc(N3CCN(C(=O)C4COc5ccccc5O4)CC3)nc(N)c2cc1OC (stereo not drawn) [Doxazosin],percent Bodipy-positive cells,[2],79.2 ± 5.9%
COc1cc2nc(N3CCN(C(=O)C4COc5ccccc5O4)CC3)nc(N)c2cc1OC (stereo not drawn) [Doxazosin mesylate],percent Bodipy-positive cells,,21.5 ± 1.8%
same,percent Bodipy-positive cells,library stock concentration: 4.4 mM,18.6 ± 0.46%
same,percent Bodipy-positive cells,[2],97.3 ± 1.1%
CC(=O)Nc1ccc(OC(=O)c2ccccc2O)cc1 [Acetaminosalol],percent Bodipy-positive cells,[2],17.2 ± 3.5%
N#C/C(=C(/N)Sc1ccc(N)cc1)c1ccccc1C(F)(F)F,percent Bodipy-positive cells,[1],8.09 ± 4%
same,percent Bodipy-positive cells,[2],17.4% and 5.29%
CC(C)(CCCCCCCCCCC(C)(C)CC(=O)O)CC(=O)O,percent Bodipy-positive cells,[6],6.98 ± 0.85%
COc1cc(OC)c2ccc(=O)oc2c1 [Citropten],percent Bodipy-positive cells,[2],31.6 ± 15%
CCCc1ccc(OCC(=O)N(Cc2nc(-c3cccnc3)no2)C(C)C)cc1,percent Bodipy-positive cells,[1],26.3 ± 3.3%
same,percent Bodipy-positive cells,[2],57.7 ± 3%
COc1cc(OC)c(NC(=O)Nc2cc(C)on2)cc1Cl,percent Bodipy-positive cells,[1],24.2 ± 8.9%
same,percent Bodipy-positive cells,[2],22.3% and 34.9%
C[C@H]1O[C@@H](O[C@H]2[C@@H](O)C[C@H](O[C@H]3[C@@H](O)C[C@H](O[C@H]4CC[C@]5(C)C6CC[C@]7(C)[C@@H](C8=CC(=O)OC8)CC[C@]7(O)C6CC[C@@H]5C4)O[C@@H]3C)O[C@@H]2C)C[C@H](O)[C@@H]1O (stereo partly drawn) [Digitoxin],percent Bodipy-positive cells,library stock concentration: 2.6 mM,71.1 ± 6.5%
CC(C)NCCCn1c(Sc2cc3c(cc2I)OCO3)nc2c(N)ncnc21,percent Bodipy-positive cells,[2],94.2 ± 1.1%
O=C(CCBr)N1CCN(C(=O)CCBr)CC1 [Pipobroman],percent Bodipy-positive cells,[2],39.2 ± 8%
CNC(=O)c1ccc(N2C(=S)N(c3ccc(C#N)c(C(F)(F)F)c3)C(=O)C2(C)C)cc1F [Enzalutamide (MDV3100)],percent Bodipy-positive cells,[1],11.3 ± 1.2%
same,percent Bodipy-positive cells,[2],16.9 ± 1.9%
CNC(=O)c1ccc(N2C(=S)N(c3ccc(C#N)c(C(F)(F)F)c3)C(=O)C2(C)C)cc1F [Enzalutamide],percent Bodipy-positive cells,[3],9.06 ± 3.1%
same,percent Bodipy-positive cells,[4],10.6 ± 5.3%
same,percent Bodipy-positive cells,[5],11 ± 9.4%
same,percent Bodipy-positive cells,[2],4.77 ± 1.3%
N[C@H]1CONC1=O [(S)-(-)-Cycloserine],percent Bodipy-positive cells,,9.48 ± 5.9%
N[C@H]1CONC1=O,percent Bodipy-positive cells,[2],36 ± 7.7%
N[C@H]1CONC1=O [L-Cycloserine],percent Bodipy-positive cells,[2],31 ± 5.7%
CCCCC1C(=O)N(c2ccccc2)N(c2ccc(O)cc2)C1=O (stereo not drawn) [Oxyphenbutazone],percent Bodipy-positive cells,,35.7 ± 1.7%
same,percent Bodipy-positive cells,library stock concentration: 6.2 mM,89.8 ± 3%
same,percent Bodipy-positive cells,[2],13.2 ± 1.1%
CC#CCn1c(N2CCC[C@@H](N)C2)nc2c1c(=O)n(Cc1nc(C)c3ccccc3n1)c(=O)n2C [Linagliptin],percent Bodipy-positive cells,[1],7.61 ± 0.61%
same,percent Bodipy-positive cells,[2],25.3 ± 5.9%

# Retrieved one by one from the entries so far (two):
structure (smiles),measurement,setting,value
CNC(=O)c1ccc(N2C(=S)N(c3ccc(C#N)c(C(F)(F)F)c3)C(=O)C2(C)C)cc1F [Enzalutamide (MDV3100)],percent Bodipy-positive cells,[2],16.9 ± 1.9%
Nc1cc2c(ncn2CCOCP(=O)(O)O)c(=O)[nH]1 [PMEG hydrate],percent Bodipy-positive cells,[2],38.7 ± 12%
